Patent US20240408222A1 (VINCERX PHARMA GMBH, priority 2021, published 2024)

Assay: general procedure: peptide synthesis; HATU
[1] = late stage modification step, TFA salt

| Substance | conjugation yield (conjugation step) | final purity (method not given) (conjugation step) | other results |
| --- | --- | --- | --- |
| N-{2-[{2-[(2-{[N2,N6-bis(14-{4-[({(1S)-2-carboxy-1-[3-({3-[(propylcarbamoyl) amino]benzene-1-sulfonyl}amino)phenyl]ethyl}carbamoyl)amino]anilino}-14-oxo-4,7,10-trioxa-13-azatetradecanan-1-oyl)-L-lysyl]amino}ethyl)(methyl)amino]ethyl}(methyl) amino]ethyl}-N-methylglycyl-L-asparaginyl-L-prolyl-N—[(R*)—{[(4R*)-15,19-difluoro-4-methyl-3,4-dihydro-2H,11H-12,16-(azeno)-10,6-(metheno)-1,5,11,13-benzodioxadiazacyclooctadecin-8-yl]methyl}(methyl)oxo-lambda6-sulfanylidene]-L-valinamide | 61% yield | – | final LC-MS purity (conjugation step): 100% purity |
| N-{2-[{2-[(tert-butoxycarbonyl)(methyl)amino]ethyl}(methyl)amino]ethyl}-N-methylglycyl-L-asparaginyl-L-prolyl-N—[(S)-{[16,20-difluoro-2,3,4,5-tetrahydro-12H-13,17-(azeno)-11,7-(metheno)-1,6,12,14-benzodioxadiazacyclononadecin-9-yl]methyl}(methyl)oxo-lambda^6-sulfanylidene]-L-valinamide | – | – | final purity (method not given) (coupling step): 96% purity; step yield (coupling step): 51% |
| N-{2-[{2-[({4-[({(1R)-2-Carboxy-1-[3-({3-[(propylcarbamoyl)amino] benzene-1-sulfonyl}amino) phenyl]ethyl} carbamoyl)amino] phenyl}carbamoyl)(methyl)amino] ethyl} (methyl)amino]ethyl}-N-methylglycyl-L-asparaginyl-L-prolyl-N— | 30% yield | 100% purity | – |
| N-{2-[{2-[({4-[({(1R)-2-Carboxy-1-[3-({3-[(propylcarbamoyl)amino]benzene-1-sulfonyl}amino) phenyl]ethyl} carbamoyl)amino]phenyl}carbamoyl)(methyl)amino]ethyl} (methyl)amino]ethyl}-N-methylglycyl-L-asparaginyl-L-prolyl-N— | 94% | 97% purity | – |
| N-{2-[{2-[({4-[({(1R)-2-Carboxy-1-[3-({3-[(propylcarbamoyl)amino]benzene-1-sulfonyl}amino) phenyl]ethyl}carbamoyl)amino]phenyl}carbamoyl)(methyl)amino]ethyl}(methyl)amino]ethyl}-N-methylglycyl-L-asparaginyl-L-prolyl-N— | 35% | 100% purity | – |
| N-{2-[{2-[({4-[({(1S)-2-Carboxy-1-[3-({3-[(propylcarbamoyl)amino]benzene-1-sulfonyl}amino) phenyl]ethyl}carbamoyl)amino]phenyl}carbamoyl)(methyl)amino]ethyl}(methyl)amino]ethyl}-N-methylglycyl-L-asparaginyl-L-prolyl-N—[(R or S*)—{[(4R or S*)-15,19-difluoro-4-methyl-3,4-dihydro-2H,11H-12,16-(azeno)-10,6-(metheno)-1,5,11,13-benzodioxadiazacyclooctadecin-8-yl]methyl}(methyl)oxo-lambda^6-sulfanylidene]-L-valinamide | 35% | 100% purity | – |
| N-{2-[{2-[{2-[({4-[({(1S)-2-carboxy-1-[3-({3-[(propylcarbamoyl)amino]benzene-1-sulfonyl}amino)phenyl]ethyl}carbamoyl)amino]phenyl}carbamoyl)amino]ethyl}(methyl)amino]ethyl}(methyl)amino]ethyl}-N-methylglycyl-L-asparaginyl-L-prolyl-N— | 15% yield | 100% purity | – |
| trifluoroacetic acid N-methyl-N-(2-{methyl[2-(methylamino)ethyl]amino}ethyl)glycyl-L-asparaginyl-L-prolyl-N—[(S)-{[16,20-difluoro-2,3,4,5-tetrahydro-12H-13,17-(azeno)-11,7-(metheno)-1,6,12,14-benzodioxadiazacyclononadecin-9-yl]methyl}(methyl)oxo-lambda^6-sulfanylidene]-L-valinamide (1/1) | – | – | crude purity (method not given) [1]: 96% purity; step yield [1]: 90% |
